Test [1] addresses T1, PHD1_(KDM5B) L325A mutant (UniProt Q9UGL1).
T1 sequence: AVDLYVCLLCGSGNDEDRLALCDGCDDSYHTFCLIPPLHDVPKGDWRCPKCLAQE
Description: ITC; ITC-200, 20 mmol/L Tris, 150 mmol/L NaCl, 1% Triton X-100, pH 7.5, 25°C; both purified.

Test [2] concerns the target T2, PHD1_(KDM5B) W351A mutant (UniProt Q9UGL1).
T2 sequence: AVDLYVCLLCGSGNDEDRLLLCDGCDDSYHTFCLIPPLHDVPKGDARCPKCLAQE
The description is as above.

Results are given in words; binding and its absence hold for the method and conditions named.

From paper PMC4225485, “The PHD1 finger of KDM5B recognizes unmodified H3K4 during the demethylation of histone H3K4me2/3 by KDM5B” (Protein & Cell, 2014) come the findings set out here.

B1: unmodified H3K4 peptide (residues 1-10) (peptide)
peptide: ARTKQTARKS
notes: histone H3 N-terminal tail, residues 1-10; also called H3K4me0; H3K4me0 peptide; source: synthetic peptide, bought: GL Biochem Ltd. (Shanghai, China)
For the molecule B1, the binding result in test [1] and in test [2] was “no binding” each time.
